# Laboratory results published in the supplement of paper PMC10849652.
# Amino acid sequences for entries named in this document (tags omitted). A change or cut given only in a name is not applied to a line headed by its entry.
# UniProt Q9Y2E5: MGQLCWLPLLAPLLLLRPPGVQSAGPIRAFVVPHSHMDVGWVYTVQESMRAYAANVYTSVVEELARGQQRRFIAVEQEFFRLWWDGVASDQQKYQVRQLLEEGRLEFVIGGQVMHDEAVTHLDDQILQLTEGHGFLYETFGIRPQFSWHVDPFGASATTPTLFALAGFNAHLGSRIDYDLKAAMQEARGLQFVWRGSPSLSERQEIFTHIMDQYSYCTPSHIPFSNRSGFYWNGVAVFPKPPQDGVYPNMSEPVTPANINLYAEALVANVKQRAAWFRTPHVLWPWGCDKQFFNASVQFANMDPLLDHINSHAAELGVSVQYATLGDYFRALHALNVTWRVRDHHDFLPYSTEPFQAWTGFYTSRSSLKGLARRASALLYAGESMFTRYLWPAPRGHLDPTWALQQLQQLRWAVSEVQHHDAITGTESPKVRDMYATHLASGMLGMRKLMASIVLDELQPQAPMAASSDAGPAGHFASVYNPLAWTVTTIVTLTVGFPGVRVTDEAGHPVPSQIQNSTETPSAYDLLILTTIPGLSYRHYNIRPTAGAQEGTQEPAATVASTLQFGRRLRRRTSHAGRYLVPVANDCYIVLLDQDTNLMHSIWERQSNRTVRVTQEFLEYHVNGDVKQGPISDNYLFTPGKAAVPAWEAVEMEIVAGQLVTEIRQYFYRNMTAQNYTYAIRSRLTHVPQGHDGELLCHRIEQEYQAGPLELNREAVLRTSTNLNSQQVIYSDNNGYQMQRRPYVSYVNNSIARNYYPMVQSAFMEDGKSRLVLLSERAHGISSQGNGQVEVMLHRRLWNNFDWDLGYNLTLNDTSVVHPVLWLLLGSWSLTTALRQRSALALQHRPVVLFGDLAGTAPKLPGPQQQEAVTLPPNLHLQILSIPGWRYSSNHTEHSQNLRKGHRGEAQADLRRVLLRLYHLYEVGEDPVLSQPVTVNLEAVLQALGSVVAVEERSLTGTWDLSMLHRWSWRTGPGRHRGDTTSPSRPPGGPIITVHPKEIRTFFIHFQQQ
# UniProt P27816: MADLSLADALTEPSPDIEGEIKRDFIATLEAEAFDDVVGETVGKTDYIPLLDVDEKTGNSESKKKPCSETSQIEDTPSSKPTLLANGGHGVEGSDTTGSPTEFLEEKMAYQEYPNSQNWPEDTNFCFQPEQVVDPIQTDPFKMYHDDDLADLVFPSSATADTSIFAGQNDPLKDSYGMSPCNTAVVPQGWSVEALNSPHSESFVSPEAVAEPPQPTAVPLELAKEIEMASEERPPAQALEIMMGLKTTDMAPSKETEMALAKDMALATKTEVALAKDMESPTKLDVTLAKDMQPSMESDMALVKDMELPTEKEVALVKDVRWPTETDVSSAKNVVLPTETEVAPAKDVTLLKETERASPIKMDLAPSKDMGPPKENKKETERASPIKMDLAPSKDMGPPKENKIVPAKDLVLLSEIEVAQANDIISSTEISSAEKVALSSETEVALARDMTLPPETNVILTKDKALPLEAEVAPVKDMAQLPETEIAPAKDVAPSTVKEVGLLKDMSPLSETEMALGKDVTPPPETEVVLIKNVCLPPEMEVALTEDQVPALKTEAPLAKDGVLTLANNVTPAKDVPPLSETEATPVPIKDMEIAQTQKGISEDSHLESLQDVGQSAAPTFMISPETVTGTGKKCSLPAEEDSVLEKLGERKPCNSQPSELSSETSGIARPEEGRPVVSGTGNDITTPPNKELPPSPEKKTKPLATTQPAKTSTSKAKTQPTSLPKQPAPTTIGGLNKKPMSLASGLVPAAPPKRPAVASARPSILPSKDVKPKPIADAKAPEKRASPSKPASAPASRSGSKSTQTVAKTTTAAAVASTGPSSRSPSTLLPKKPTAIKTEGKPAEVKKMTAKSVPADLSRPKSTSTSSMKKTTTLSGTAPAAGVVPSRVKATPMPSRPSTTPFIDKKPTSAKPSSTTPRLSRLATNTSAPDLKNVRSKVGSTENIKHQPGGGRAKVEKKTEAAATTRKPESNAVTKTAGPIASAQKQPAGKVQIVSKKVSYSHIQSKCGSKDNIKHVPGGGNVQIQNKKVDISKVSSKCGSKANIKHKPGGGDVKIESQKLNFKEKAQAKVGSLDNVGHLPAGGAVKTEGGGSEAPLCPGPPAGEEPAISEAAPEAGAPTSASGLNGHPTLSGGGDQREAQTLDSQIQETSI
# UniProt Q9UBF1: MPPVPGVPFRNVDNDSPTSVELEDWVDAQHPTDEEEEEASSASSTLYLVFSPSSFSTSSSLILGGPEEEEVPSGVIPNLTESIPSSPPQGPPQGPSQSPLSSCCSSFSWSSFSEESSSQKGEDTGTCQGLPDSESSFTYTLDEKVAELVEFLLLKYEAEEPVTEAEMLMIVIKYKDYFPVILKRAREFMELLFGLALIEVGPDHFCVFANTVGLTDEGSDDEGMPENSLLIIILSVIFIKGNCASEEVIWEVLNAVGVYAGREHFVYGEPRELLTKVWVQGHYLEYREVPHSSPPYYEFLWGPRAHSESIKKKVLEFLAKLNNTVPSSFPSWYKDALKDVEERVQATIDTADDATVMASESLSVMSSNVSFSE
# UniProt Q16539, whole entry, looked up: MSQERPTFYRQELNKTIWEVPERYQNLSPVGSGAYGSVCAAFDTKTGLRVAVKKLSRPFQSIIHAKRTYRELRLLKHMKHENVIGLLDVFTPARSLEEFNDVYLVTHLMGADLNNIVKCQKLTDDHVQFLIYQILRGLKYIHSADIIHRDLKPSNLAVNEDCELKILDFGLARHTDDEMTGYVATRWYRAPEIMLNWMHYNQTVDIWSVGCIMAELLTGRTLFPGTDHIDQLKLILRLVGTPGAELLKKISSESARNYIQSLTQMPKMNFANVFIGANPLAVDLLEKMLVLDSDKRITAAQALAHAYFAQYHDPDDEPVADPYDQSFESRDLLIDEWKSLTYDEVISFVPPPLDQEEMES
# UniProt Q16644, whole entry, looked up: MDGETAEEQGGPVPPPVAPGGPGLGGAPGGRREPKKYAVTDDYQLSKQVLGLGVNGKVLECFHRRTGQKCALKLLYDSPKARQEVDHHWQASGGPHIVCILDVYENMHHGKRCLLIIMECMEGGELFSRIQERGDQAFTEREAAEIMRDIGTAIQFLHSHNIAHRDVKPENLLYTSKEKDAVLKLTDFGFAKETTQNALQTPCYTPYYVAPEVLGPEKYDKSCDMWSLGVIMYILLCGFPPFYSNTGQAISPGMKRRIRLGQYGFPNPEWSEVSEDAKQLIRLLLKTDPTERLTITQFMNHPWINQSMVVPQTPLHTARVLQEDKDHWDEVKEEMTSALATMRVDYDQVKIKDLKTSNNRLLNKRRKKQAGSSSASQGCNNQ
# UniProt Q96A72, whole entry, looked up: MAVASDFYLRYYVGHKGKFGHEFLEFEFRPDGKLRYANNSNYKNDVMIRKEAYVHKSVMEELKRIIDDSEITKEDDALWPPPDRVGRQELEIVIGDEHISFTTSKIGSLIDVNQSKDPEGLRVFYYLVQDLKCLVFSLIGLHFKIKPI
# UniProt Q9Y383: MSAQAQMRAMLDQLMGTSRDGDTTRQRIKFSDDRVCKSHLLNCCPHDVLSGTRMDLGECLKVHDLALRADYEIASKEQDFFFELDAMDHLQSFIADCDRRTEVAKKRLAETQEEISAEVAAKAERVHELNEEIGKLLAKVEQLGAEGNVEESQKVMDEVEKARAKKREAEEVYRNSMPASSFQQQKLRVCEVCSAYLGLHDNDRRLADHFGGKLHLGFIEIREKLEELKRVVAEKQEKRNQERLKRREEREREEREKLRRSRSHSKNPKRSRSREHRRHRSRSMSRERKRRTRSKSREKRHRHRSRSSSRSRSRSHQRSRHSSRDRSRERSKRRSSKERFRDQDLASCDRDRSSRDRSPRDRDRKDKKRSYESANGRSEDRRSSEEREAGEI
# UniProt P49006: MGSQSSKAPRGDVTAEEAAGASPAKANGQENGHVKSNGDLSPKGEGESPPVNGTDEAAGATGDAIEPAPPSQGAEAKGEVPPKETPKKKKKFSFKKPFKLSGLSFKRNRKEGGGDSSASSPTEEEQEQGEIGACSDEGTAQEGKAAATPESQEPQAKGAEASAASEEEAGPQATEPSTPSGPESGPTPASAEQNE
# UniProt Q8WXG6, whole entry, looked up: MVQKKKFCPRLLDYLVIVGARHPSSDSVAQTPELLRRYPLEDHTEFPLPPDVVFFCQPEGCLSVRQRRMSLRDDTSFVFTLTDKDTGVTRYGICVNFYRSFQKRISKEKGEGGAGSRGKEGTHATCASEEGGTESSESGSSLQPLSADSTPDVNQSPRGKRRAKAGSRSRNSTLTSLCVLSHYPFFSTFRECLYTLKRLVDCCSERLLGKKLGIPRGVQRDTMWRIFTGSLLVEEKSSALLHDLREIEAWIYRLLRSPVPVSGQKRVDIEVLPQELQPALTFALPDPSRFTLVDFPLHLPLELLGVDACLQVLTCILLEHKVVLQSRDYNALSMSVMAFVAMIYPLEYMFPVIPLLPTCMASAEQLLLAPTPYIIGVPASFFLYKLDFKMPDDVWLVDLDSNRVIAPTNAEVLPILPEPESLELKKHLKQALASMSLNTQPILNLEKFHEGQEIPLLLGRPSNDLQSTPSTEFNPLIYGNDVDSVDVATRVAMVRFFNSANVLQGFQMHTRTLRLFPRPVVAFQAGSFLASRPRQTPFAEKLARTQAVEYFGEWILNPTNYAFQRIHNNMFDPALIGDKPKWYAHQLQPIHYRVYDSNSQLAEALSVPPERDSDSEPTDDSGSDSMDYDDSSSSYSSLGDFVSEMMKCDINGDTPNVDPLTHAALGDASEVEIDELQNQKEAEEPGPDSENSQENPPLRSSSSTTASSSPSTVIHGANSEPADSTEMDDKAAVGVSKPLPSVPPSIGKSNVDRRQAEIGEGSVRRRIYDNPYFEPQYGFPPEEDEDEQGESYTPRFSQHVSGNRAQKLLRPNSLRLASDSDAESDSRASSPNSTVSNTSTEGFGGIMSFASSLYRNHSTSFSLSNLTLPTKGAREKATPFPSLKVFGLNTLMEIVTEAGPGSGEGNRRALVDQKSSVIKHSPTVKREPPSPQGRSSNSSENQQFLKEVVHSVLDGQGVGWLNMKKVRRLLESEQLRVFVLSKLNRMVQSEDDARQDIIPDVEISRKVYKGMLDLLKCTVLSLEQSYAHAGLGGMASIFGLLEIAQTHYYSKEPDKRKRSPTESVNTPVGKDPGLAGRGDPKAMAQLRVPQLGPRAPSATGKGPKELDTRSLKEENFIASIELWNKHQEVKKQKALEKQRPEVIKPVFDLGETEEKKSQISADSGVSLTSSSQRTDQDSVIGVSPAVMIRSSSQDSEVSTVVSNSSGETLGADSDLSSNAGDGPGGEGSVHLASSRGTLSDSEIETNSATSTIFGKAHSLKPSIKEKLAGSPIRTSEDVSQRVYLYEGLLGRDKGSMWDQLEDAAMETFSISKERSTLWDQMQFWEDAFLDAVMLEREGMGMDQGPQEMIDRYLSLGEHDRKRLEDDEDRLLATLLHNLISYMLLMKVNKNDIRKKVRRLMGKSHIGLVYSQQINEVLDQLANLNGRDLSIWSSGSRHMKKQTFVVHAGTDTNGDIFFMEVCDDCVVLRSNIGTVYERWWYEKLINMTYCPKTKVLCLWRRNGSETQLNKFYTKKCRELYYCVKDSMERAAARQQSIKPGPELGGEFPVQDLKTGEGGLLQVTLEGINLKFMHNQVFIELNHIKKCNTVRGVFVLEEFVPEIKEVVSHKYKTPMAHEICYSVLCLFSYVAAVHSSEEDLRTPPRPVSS
# UniProt Q32MZ4: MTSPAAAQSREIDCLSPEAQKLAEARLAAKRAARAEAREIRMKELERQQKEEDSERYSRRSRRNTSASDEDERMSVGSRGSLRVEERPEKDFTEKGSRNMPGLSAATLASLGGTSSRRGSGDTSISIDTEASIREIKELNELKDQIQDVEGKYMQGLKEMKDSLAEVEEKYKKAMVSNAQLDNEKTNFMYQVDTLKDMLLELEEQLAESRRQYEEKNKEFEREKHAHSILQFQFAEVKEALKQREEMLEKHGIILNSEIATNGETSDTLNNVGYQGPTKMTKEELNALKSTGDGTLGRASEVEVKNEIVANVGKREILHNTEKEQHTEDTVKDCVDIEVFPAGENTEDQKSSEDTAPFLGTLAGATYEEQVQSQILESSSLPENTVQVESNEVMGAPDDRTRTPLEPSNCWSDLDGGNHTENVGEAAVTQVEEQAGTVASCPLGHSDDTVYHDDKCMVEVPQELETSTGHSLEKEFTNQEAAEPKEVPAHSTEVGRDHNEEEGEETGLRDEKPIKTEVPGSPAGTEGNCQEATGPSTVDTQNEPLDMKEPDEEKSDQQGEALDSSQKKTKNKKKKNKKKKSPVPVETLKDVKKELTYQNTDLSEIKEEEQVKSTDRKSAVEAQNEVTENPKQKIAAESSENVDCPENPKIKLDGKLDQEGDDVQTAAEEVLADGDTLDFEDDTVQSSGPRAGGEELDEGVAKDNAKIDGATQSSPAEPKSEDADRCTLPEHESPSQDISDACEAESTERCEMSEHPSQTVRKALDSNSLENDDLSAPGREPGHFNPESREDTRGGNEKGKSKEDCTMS
# Some of the results follow. Residues, ends and D or L forms follow the SMILES beside them. *: point of attachment. Cbz = O=C(OCc1ccccc1)*
# Tests used:
# Test in all cases: log2 fold change, soluble protein after heating vs DMSO (PISA); higher = thermal stabilisation; K562 cells, 10 uM, 30 min; active = over 0.2 and 3.5 SD of the protein, either way, in both replicates (recomputed)
# [1] = compound: C1COCCN1CCN2C3=CC=CC=C3N=C2NC(=O)C4=CC(=CC=C4)[N+](=O)[O-] [IRAK-1-4 Inhibitor I]
# Method in brief: (§1)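 K562 cells at 2×10^6 cells/mL were given 10 μM compound for 30 min. Aliquots then went through 3 min of heating across 48°C-58°C, were pooled, and were extracted in PBS with 0.5% NP-40 at 4°C, and the supernatant after 21,000xg for 90 min was quantified by TMTpro 16plex LC-MS/MS with channel sums equalised. Thermal stability relative to control samples, from duplicates, is given as log2 fold change.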
# [2] = compound: C=CC(=O)N1CCC[C@@H](n2nc(-c3ccc(Oc4ccccc4)cc3)c3c(N)ncnc32)C1 [ibrutinib]
# Method in brief: as §1
# [3] = compound: CC(=O)c1cnc2ccc(-c3cc(Cl)c(O)c(Cl)c3)nc2c1N[C@H]1CC[C@H](CN(C)C)CC1
# Method in brief: as §1
# [4] = compound: CC(C)(C)Cn1c(N)nc2ccc(-c3[nH]c(C(C)(C)C)nc3-c3ccc(F)cc3)nc21 [ralimetinib]
# Method in brief: as §1
# [5] = compound: CC(C)(O)CC(=O)NCCn1ccc2ncnc(Nc3ccc(Oc4cccc(C(F)(F)F)c4)c(Cl)c3)c21
# Method in brief: as §1
# [6] = compound: CC(C)C1=C2N=C(C=C(N2N=C1)NCC3=CC=CC=C3)NCCCCCCN
# Method in brief: as §1
# [7] = compound: CC(C)C[C@@H](C=O)NC(=O)[C@H](CC(C)C)NC(=O)[C@H](CC(C)C)NC(=O)OCc1ccccc1
# Method in brief: as §1
# [8] = compound: CC(C)N(C[C@H]1O[C@@H](n2cnc3c(N)ncnc32)[C@H](O)[C@@H]1O)[C@H]1C[C@@H](CCc2nc3cc(C(C)(C)C)ccc3[nH]2)C1 [pinometostat]
# Method in brief: as §1
# [9] = compound: CC1=C(C2=C(C=C1)C(=O)C3=CC=CC=C3N2CCCN)C
# Method in brief: as §1
# [10] = compound: CC1=C(C=C(C=C1)NC(=O)C2=CC(=CC=C2)C(C)(C)C#N)NC3=CC4=C(C=C3)N=CN(C4=O)C
# Method in brief: as §1
# [11] = compound: CC1=C(C=C(C=C1)NC(=O)C2=CC(=CC=C2)N(C)C)NC(=O)C3=CC=C(C=C3)O
# Method in brief: as §1
# [12] = compound: CC1=CC=C(C=C1)SC2=C3C=C(SC3=CN=C2)C(=O)N
# Method in brief: as §1
# [13] = compound: CC1=NC(=CC=C1)C2=C(N=C(N2)C(C)(C)C)C3=CC4=NC=CN=C4C=C3
# Method in brief: as §1
# [14] = compound: CCCCN(Cc1ccc(C(=O)NO)cc1)C(=O)Nc1ccccc1 [Nexturastat A]
# Method in brief: as §1
# [15] = compound: CCCS(=O)(=O)Nc1ccc(F)c(C(=O)c2c[nH]c3ncc(-c4ccc(Cl)cc4)cc23)c1F [vemurafenib]
# Method in brief: as §1
# [16] = compound: CCCS(=O)(=O)Nc1ccc(F)c(C(=O)c2c[nH]c3ncc(Cl)cc23)c1F
# Method in brief: as §1
# [17] = compound: CCCc1cc(C)[nH]c(=O)c1CNC(=O)c1cc(-c2ccnc(N3CCN(C)CC3)c2)cc2c1cnn2C(C)C
# Method in brief: as §1
# [18] = compound: CCN(CC)Cc1ccc2cc(COC(=O)Nc3ccc(C(=O)NO)cc3)ccc2c1 [givinostat]
# Method in brief: as §1
# [19] = compound: CCN(CCCOc1ccc2c(Nc3cc(CC(=O)Nc4cccc(F)c4)[nH]n3)ncnc2c1)CCOP(=O)(O)O [barasertib]
# Method in brief: as §1
# [20] = compound: CC1=C(C(CC(=O)N1)C2=CC=C(C=C2)C(F)(F)F)C(=O)NC3=C(C=C4C(=C3)C=NN4)F
# Method in brief: as §1
Target,log2 fold change [1],log2 fold change [2],log2 fold change [3],log2 fold change [4],log2 fold change [5],log2 fold change [6],log2 fold change [7],log2 fold change [8],log2 fold change [9],log2 fold change [10],log2 fold change [11],log2 fold change [12],log2 fold change [13],log2 fold change [14],log2 fold change [15],log2 fold change [16],log2 fold change [17],log2 fold change [18],log2 fold change [19],log2 fold change [20]
MAN2B2 (UniProt Q9Y2E5),inactive: 0.086,inactive: -0.079,inactive: -0.171,inactive: 0.029,inactive: -0.033,inactive: -0.078,inactive: 0.043,inactive: 0.089,inactive: -0.048,inactive: 0.017,inactive: 0.049,inactive: 0.033,inactive: -0.056,inactive: -0.062,inactive: -0.105,inactive: -0.17,inactive: 0.139,inactive: 0.014,inactive: 0.041,–
MAP4 (UniProt P27816),inactive: 0.003,inactive: 0,inactive: 0.012,inactive: 0.025,inactive: 0.012,inactive: 0.076,inactive: 0.019,inactive: 0.001,inactive: 0.08,inactive: -0.006,inactive: 0.007,inactive: -0.018,inactive: -0.01,inactive: 0.003,inactive: -0.018,inactive: -0.007,inactive: 0.002,inactive: -0.004,inactive: -0.046,–
MAP2K2 (UniProt P36507),inactive: 0.045,inactive: 0.012,active: -0.496,inactive: 0.105,inactive: -0.065,inactive: -0.02,inactive: 0.056,inactive: 0.003,inactive: -0.001,inactive: -0.018,inactive: 0.013,inactive: 0.009,inactive: 0.028,inactive: -0.001,inactive: -0.008,inactive: -0.002,inactive: 0.17,inactive: 0.014,inactive: 0.011,–
MAGEC2 (UniProt Q9UBF1),inactive: -0.003,inactive: -0.02,inactive: 0.108,inactive: 0.093,inactive: 0.058,inactive: -0.059,inactive: 0.05,inactive: -0.003,active: -0.318,inactive: 0.017,inactive: 0.045,inactive: -0.046,inactive: 0.057,inactive: 0,inactive: 0.035,inactive: 0.04,inactive: 0.005,inactive: -0.013,inactive: -0.005,–
MAPK14 isoform 2 (UniProt Q16539),inactive: -0.011,inactive: 0.001,active: 1.01,active: 1.48,inactive: -0.096,inactive: -0.218,inactive: -0.089,inactive: -0.141,inactive: -0.013,active: 1.9,inactive: 0.649,inactive: 0.024,inactive: 0.036,inactive: 0.064,inactive: 0.095,inactive: 0.219,inactive: 0.026,inactive: 0.107,inactive: -0.005,–
MAP4 (UniProt E7EVA0),inactive: -0.058,inactive: -0.036,inactive: -0.022,inactive: 0.088,inactive: 0.013,inactive: -0.025,inactive: 0.049,inactive: 0.104,inactive: 0.027,inactive: 0,inactive: 0.008,inactive: -0.03,inactive: -0.061,inactive: 0.161,inactive: -0.046,inactive: -0.002,inactive: 0.024,inactive: 0.091,inactive: 0.061,–
MAIP1 (UniProt Q8WWC4),inactive: 0,inactive: -0.014,inactive: -0.004,inactive: -0.028,inactive: 0.09,inactive: -0.201,inactive: -0.026,inactive: -0.042,inactive: 0.052,inactive: -0.022,inactive: -0.005,inactive: 0.083,inactive: 0.088,inactive: -0.033,inactive: 0.034,inactive: 0.057,inactive: -0.034,inactive: 0.001,inactive: -0.002,–
LUC7L3 (UniProt O95232),inactive: -0.123,inactive: -0.037,active: -0.409,inactive: -0.024,inactive: 0.024,inactive: -0.04,inactive: 0.007,inactive: -0.023,inactive: 0.109,inactive: -0.046,inactive: 0.034,inactive: -0.036,inactive: 0.086,inactive: -0.008,inactive: 0.024,inactive: 0.013,inactive: -0.009,inactive: 0.003,inactive: 0.022,–
MAPK9 (UniProt P45984),inactive: -0.002,inactive: -0.016,active: 0.278,inactive: 0.208,inactive: 0.005,inactive: -0.037,inactive: -0.032,inactive: -0.032,inactive: 0,inactive: 0,inactive: -0.011,inactive: -0.078,inactive: 0.044,inactive: -0.057,inactive: -0.005,inactive: -0.07,inactive: 0.034,inactive: 0.038,inactive: -0.022,–
MAPKAPK3 (UniProt Q16644),inactive: 0.031,inactive: 0.006,active: 0.332,active: 0.413,inactive: -0.103,inactive: -0.121,inactive: -0.151,inactive: -0.039,inactive: 0.045,inactive: 0.24,inactive: 0.097,inactive: -0.025,inactive: 0.069,inactive: -0.134,inactive: 0.033,inactive: 0.063,inactive: -0.012,inactive: 0.015,inactive: 0.039,–
MAGOHB (UniProt Q96A72),inactive: -0.031,inactive: 0.004,inactive: 0.25,inactive: -0.094,inactive: 0.015,inactive: 0.061,inactive: 0,inactive: -0.022,inactive: 0.028,inactive: -0.002,inactive: -0.062,inactive: 0.008,inactive: 0.067,inactive: -0.026,inactive: 0.037,inactive: 0.04,inactive: -0.069,inactive: 0.003,inactive: 0.007,–
LUC7L (UniProt Q9NQ29),inactive: -0.098,inactive: 0.027,inactive: -0.137,inactive: 0.009,inactive: 0.08,inactive: -0.007,inactive: 0.021,inactive: 0.101,inactive: -0.056,inactive: 0.028,inactive: 0.003,inactive: -0.022,inactive: -0.021,inactive: 0.054,inactive: -0.007,inactive: -0.004,inactive: 0.027,inactive: -0.034,inactive: -0.01,–
LUC7L2 (UniProt Q9Y383),inactive: -0.207,inactive: -0.026,active: -0.646,inactive: 0.111,inactive: 0.031,inactive: -0.134,inactive: -0.04,inactive: -0.048,inactive: -0.037,inactive: 0.016,inactive: -0.011,inactive: 0.006,inactive: 0.089,inactive: -0.036,inactive: 0.012,inactive: 0.047,inactive: 0.015,inactive: -0.01,inactive: 0,–
MAP1LC3B2 (UniProt A6NCE7),inactive: -0.002,inactive: -0.053,inactive: -0.059,inactive: -0.026,inactive: 0.008,inactive: -0.087,inactive: 0.009,inactive: -0.008,inactive: -0.01,inactive: 0.021,inactive: -0.034,inactive: -0.029,inactive: 0.04,inactive: -0.028,inactive: 0.088,inactive: 0.01,inactive: 0.041,inactive: 0.038,inactive: 0,–
MARCKSL1 (UniProt P49006),inactive: 0.041,inactive: 0,inactive: -0.039,inactive: -0.069,inactive: 0.106,inactive: 0.006,inactive: -0.034,inactive: -0.017,inactive: 0.028,inactive: 0.039,inactive: 0.011,inactive: -0.111,inactive: 0.032,inactive: -0.127,inactive: 0.005,inactive: -0.125,inactive: 0.005,inactive: 0.041,inactive: 0.034,–
MADD isoform 2 (UniProt Q8WXG6),inactive: -0.092,inactive: -0.098,inactive: 0.01,inactive: 0.105,inactive: -0.019,inactive: -0.147,inactive: 0.131,inactive: 0.089,inactive: -0.018,inactive: 0.079,inactive: -0.02,inactive: 0.113,inactive: -0.03,inactive: 0.205,–,inactive: 0.005,inactive: -0.056,inactive: 0.106,inactive: 0.002,inactive: -0.04
LRRFIP1 (UniProt Q32MZ4),inactive: 0.014,inactive: 0.019,inactive: 0.027,inactive: -0.003,inactive: 0.063,inactive: 0.084,inactive: 0.011,inactive: 0,inactive: -0.043,inactive: -0.024,inactive: 0.003,inactive: -0.012,inactive: -0.01,inactive: 0.005,inactive: -0.019,inactive: -0.027,inactive: -0.002,inactive: 0.014,inactive: 0.004,–

# 4 successive entries already listed, quoted:
Target,log2 fold change [1],log2 fold change [2],log2 fold change [3],log2 fold change [4],log2 fold change [5],log2 fold change [6],log2 fold change [7],log2 fold change [8],log2 fold change [9],log2 fold change [10],log2 fold change [11],log2 fold change [12],log2 fold change [13],log2 fold change [14],log2 fold change [15],log2 fold change [16],log2 fold change [17],log2 fold change [18],log2 fold change [19],log2 fold change [20]
LUC7L (UniProt Q9NQ29),inactive: -0.098,inactive: 0.027,inactive: -0.137,inactive: 0.009,inactive: 0.08,inactive: -0.007,inactive: 0.021,inactive: 0.101,inactive: -0.056,inactive: 0.028,inactive: 0.003,inactive: -0.022,inactive: -0.021,inactive: 0.054,inactive: -0.007,inactive: -0.004,inactive: 0.027,inactive: -0.034,inactive: -0.01,–
LUC7L2 (UniProt Q9Y383),inactive: -0.207,inactive: -0.026,active: -0.646,inactive: 0.111,inactive: 0.031,inactive: -0.134,inactive: -0.04,inactive: -0.048,inactive: -0.037,inactive: 0.016,inactive: -0.011,inactive: 0.006,inactive: 0.089,inactive: -0.036,inactive: 0.012,inactive: 0.047,inactive: 0.015,inactive: -0.01,inactive: 0,–
MAP1LC3B2 (UniProt A6NCE7),inactive: -0.002,inactive: -0.053,inactive: -0.059,inactive: -0.026,inactive: 0.008,inactive: -0.087,inactive: 0.009,inactive: -0.008,inactive: -0.01,inactive: 0.021,inactive: -0.034,inactive: -0.029,inactive: 0.04,inactive: -0.028,inactive: 0.088,inactive: 0.01,inactive: 0.041,inactive: 0.038,inactive: 0,–
MARCKSL1 (UniProt P49006),inactive: 0.041,inactive: 0,inactive: -0.039,inactive: -0.069,inactive: 0.106,inactive: 0.006,inactive: -0.034,inactive: -0.017,inactive: 0.028,inactive: 0.039,inactive: 0.011,inactive: -0.111,inactive: 0.032,inactive: -0.127,inactive: 0.005,inactive: -0.125,inactive: 0.005,inactive: 0.041,inactive: 0.034,–
